From patent publication US12201593B2, “Oral pharmaceutical formulations of bitter compounds for asthma” (Aardvark Therapeutics Inc., priority 2018, dated 2025)

System: primary human smooth muscle (HASM) cells
Experiment: FLECS bronchodilator assay: single-cell contractility of HASM cells after bradykinin/carbachol-induced contraction
Type: cell-based
Conditions: given after time-point 5 following BK exposure
Source text: FIGS. 1A, 1B, and 1C show the bronchodilator assay workflow with a […] of FLECS. Each well holds ˜1,200 micro-patterns for sensing force-generation by single cells. […] The two cases represent the positive and negative controls for the assay.
An in vitro model using human airway smooth muscle cells (HASM) from both asthmatic patients and “normal” non-asthmatic humans was stimulated to contract with bradykinin.
The assay investigated bronchodilatation properties of bitter taste agonists, individually and in combination, administered to primary human smooth muscle (HASM) cells after inducing contraction with asthmatic agent bradykinin. HASM cells were obtained from asthmatic patients and “normal” or non-asthmatic patients. Each of 4 primary HASM cell lines (2 from healthy donors; 2 from asthmatic donors) were seeded on FLECSplates and were stimulated to contract via exposure to bradykinin (BK) or carbachol. […] Accordingly, at 15 minutes following exposure to BK, the cells were treated with a denatonium salt or 3-CQL for Example 1, or combinations thereof, as well as positive controls and negative controls. The cells were imaged at 5 minute intervals beginning with a baseline reading, out to 45 minutes. The measurement was attenuation of population wide BK-induced contractility by treatment of a test compound (or combination) relative to controls. […]

SMILES: COc1ccc(CC(C)NCC(O)c2ccc(O)c(NC=O)c2)cc1 (stereo not shown) [formoterol, Formoterol]
- effect on bradykinin-induced contraction (FIG. 1, positive control): halt and reversal in the contraction
